Values of other authors, collected in patent US20250381145A1, “COMBINATION OF SGLT2 INHIBITORS AND MINERALCORTICOID RECEPTOR MODULATORS FOR USE IN TREATMENT OF CARDIORENAL DISEASES” (ASTRAZENECA AB, priority 2022, published 2025).
At least one read-out could not be matched to a standard name with certainty.

For `CNC(=O)C[C@H]1COc2cc(F)ccc2N1C(=O)c1ccc2c(c1)NC(=O)CO2` [AZD9977, balcinrenone], the “permeability (BCS characterisation)” value is given as “low”.
